Data published in PMC9563422.
These are yes or no findings as the source states them, for the method shown. Binding seen in cells or lysates may run through a third protein. Binding can be weak; no strength is given.

Molecular target: GST-Tip60 catalytic MYST domain
Assay: pull-down; GST, GST-Tip60 (20 uL glutathione agarose) or GST-Tip60 truncated proteins (1 ug) on beads, incubated with 5 uL in vitro translated PXR in buffer with 100 mM NaCl at 4 °C overnight; washes with 150 mM NaCl; Western blot with PXR antibody; only the target purified

binding: binds
B1: in vitro translated PXR (receptor, UniProt O75469 1-434)
chain: MEVRPKESWNHADFVHCEDTESVPGKPSVNADEEVGGPQICRVCGDKATGYHFNVMTCEGCKGFFRRAMKRNARLRCPFRKGACEITRKTRRQCQACRLRKCLESGMKKEMIMSDEAVEERRALIKRKKSERTGTQPLGVQGLTEEQRMMIRELMDAQMKTFDTTFSHFKNFRLPGVLSSGCELPESLQAPSREEAAKWSQVRKDLCSLKVSLQLRGEDGSVWNYKPPADSGGKEIFSLLPHMADMSTYMFKGIISFAKVISYFRDLPIEDQISLLKGAAFELCQLRFNTVFNAETGTWECGRLSYCLEDTAGGFQQLLLEPMLKFHYMLKKLQLHEEEYVLMQAISLFSPDRPGVLQHRVVDQLQEQFAITLKSYIECNRPQPAHRFLFLKIMAMLTELRSINAQHTQRLLRIQDIHPFATPLMQELFGITGS
